Experimental data as given in the supplement of paper PMC12889115.
The other results are listed elsewhere or left out. Values are raw readings; no control value is given beside them.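 In the initial screen, polymyxin B was used at a concentration that permeabilizes Salmonella's outer membrane but not its inner membrane. Maximum growth was set by DMSO wells with or without polymyxin B. Since plates varied, data were ranked per plate, and compounds giving the lowest OD600 advanced as hits.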

Tested on: Salmonella enterica serovar Typhimurium SL1344
Experiment: bacterial growth OD600 after 18 h with compound and polymyxin B; higher = more bacterial growth (less inhibition)
Conditions: 50 µM, Mueller-Hinton broth

Compound | bacterial growth OD600 (polymyxin B 0.75 µg/mL) | bacterial growth OD600 (polymyxin B 1 µg/mL)
Cc1cccc(CC(=O)NCC2Cc3cc(-c4nc(C)cnc4C)ccc3O2)c1 (stereo unspecified) | 0.849 | 
COc1cccc(CN2CCCC3(CCN(Cc4cnc(OC)nc4)C3)C2=O)c1 (stereo unspecified) |  | 0.785
CCC1CN(CCNC(=O)C(C)n2cncn2)Cc2cc(OC)ccc2O1 (stereo unspecified) | 0.841 | 
CC(C)CN1CCC(CNc2nncc(-c3ccccc3F)n2)CC1 | 0.692 | 
COCCN1C(=O)CC(CC(=O)NCCc2ccc(OC)c(OC)c2)(c2ccccc2C)C1=O (stereo unspecified) | 0.862 | 
CC(NC(=O)C1CC(Cc2ccc3c(c2)OCO3)=NO1)c1cnn(-c2ccccc2)c1 (stereo unspecified) | 0.72 | 
O=C(C1CCCC1)N1CCc2[nH]nc(-c3ccc(Cl)cc3)c2C1 | 0.891 | 
CCS(=O)(=O)c1ncc(CN(C)CCOC)n1CCc1ccccc1 |  | 1.22
CCOCCCNC(=O)C1CCC(=O)N(CCc2cccc(F)c2)C1 (stereo unspecified) |  | 1.03
COCCNC(=O)c1ccc(OC)cc1OC1CCN(Cc2ccccc2Cl)CC1 |  | 1.16
Cc1n[nH]c(C)c1CNC(=O)CC(c1cccc(Cl)c1)c1ccccc1O (stereo unspecified) |  | 0.888
COc1ccc(F)c(CC2(CCC(=O)NCCc3ccc(F)cc3)CCC(=O)N2)c1 (stereo unspecified) | 0.821 | 
Cc1cccc(C)c1Oc1ncccc1CNC(=O)Cc1ccc2c(c1)OCO2 |  | 0.826
COc1cc(CN2CCC(Oc3cc(C(=O)NC4CC4)ccc3OC)CC2)cc(OC)c1 |  | 0.933
NC(=O)[C@@H]1CCCN1C(=O)CC1c2ccccc2CCc2ccccc21 | 0.963 | 
C=C(C)CN(C)Cc1cnc(S(=O)(=O)Cc2ccccc2)n1CC(C)C |  | 0.013

Compound | bacterial growth OD600 (polymyxin B 0.75 µg/mL) | bacterial growth OD600 (polymyxin B 1 µg/mL)
COCCN1C(=O)CC(CC(=O)N2CCCC(C)C2)(c2ccccc2F)C1=O (stereo unspecified) | 0.742 | 
COc1ccc(-c2nn(-c3ccccc3C)cc2CN(C)Cc2cnccn2)cc1F |  | 0.002
COCCO[C@H]1[C@H](NC(=O)C(C)C)c2ccccc2C12CCN(Cc1ccccn1)CC2 | 0.851 | 
CO[C@H]1[C@H](NC(=O)c2ccncc2)c2ccccc2C12CCN(C(=O)CCN1CCCCC1=O)CC2 | 0.747 | 
COc1ccc(CCN2CCCC(CN(C)C(=O)c3cnn(C(C)C)c3)C2)cc1 (stereo unspecified) | 0.883 | 
COc1ccccc1OCc1cc(C(=O)N(C)Cc2cc(C)[nH]n2)n[nH]1 |  | 1.07
COc1ccc([C@@H](C)NC(=O)c2coc(COc3cccc(F)c3)n2)cc1 | 0.587 | 
O=C(Nc1ccnn1C1CCN(Cc2nc3c(s2)CCCC3)CC1)C1CC1 |  | 0.975
CC(=O)c1cc(CN2CCC(C3CCN(c4ncccn4)CC3)C2)cs1 (stereo unspecified) | 0.812 | 
O=C(C1CCCC1)N1CCC2(CCCN(Cc3cccc(F)c3F)C2)C1 (stereo unspecified) |  | 0.238
CN(Cc1cccc(C(F)(F)F)c1)C(=O)c1cn(CC2CCCO2)nn1 (stereo unspecified) |  | 1.05
Cc1cccnc1N1CCC(C2CCN(c3ncccn3)CC2)C1 (stereo unspecified) | 0.53 | 
COc1ccc(CCC(=O)NCCN2Cc3ccccc3OC(c3ccccc3F)C2)cc1OC (stereo unspecified) | 0.711 | 
CN1N=C(C(=O)N2CCCC(CNC(=O)c3cccc4ccccc34)C2)CCC1=O (stereo unspecified) |  | 0.957
CCOC(=O)C1CCCN(C(=O)c2coc(COc3ccccc3)n2)C1 (stereo unspecified) |  | 0.931

Single records, from the list above.
`O=C(Nc1ccnn1C1CCN(Cc2nc3c(s2)CCCC3)CC1)C1CC1` as listed: bacterial growth OD600 (polymyxin B 1 µg/mL): 0.975
`O=C(C1CCCC1)N1CCC2(CCCN(Cc3cccc(F)c3F)C2)C1` (stereo unspecified) as listed: bacterial growth OD600 (polymyxin B 1 µg/mL): 0.238
